Earlier results as cited in patent US11117905B2, “Bisaryl heterocycles as NRF2 activators” (GLAXOSMITHKLINE INTELLECTUAL PROPERTY DEVELOPMENT LIMITED, priority 2016, dated 2021).
At least one compound was matched to its structure with a doubt left.

Test system: diabetic patients with diabetic nephropathy/chronic kidney disease (CKD)
Conditions: cited from earlier work

With `COC(=O)[C@]12CCC(C)(C)C[C@H]1[C@H]1C(=O)C=C3[C@@]4(C)C=C(C#N)C(=O)C(C)(C)[C@@H]4CC[C@@]3(C)[C@]1(C)CC2` [bardoxolone methyl] as the molecule, how does the “efficacy in the clinic” value read?
Its value is “has shown efficacy”.
